The list shows a part of the results. Further columns of the screen follow, without active or inactive calls. Compounds called inactive in the main read-out are mostly missing here. Words in brackets tell the shape of the fitted curve; partial curves, single points and poor fits give uncertain potencies.
Test: qHTS Assay for Lipid Storage Modulators in Drosophila S3 Cells;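 as to cell number change: cells counted by Cell Tracker Red CMTPX staining in the red channel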
Conditions: BODIPY lipid droplet fluorescence, 18-24 h; for cell number change: measured here: cell count max response, cells fed with added oleic acid
How it was run: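 Drosophila S3 cells got compounds at several concentrations plus oleic acid (400 uM solution). Laser-scanning cytometry with 488 nm excitation read lipid droplets at 500-530 nm and cells at 575-640 nm. Percent activity was relative to 20 uM Triacsin C.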

[1] = measured here: cell number channel AC50, cells fed with added oleic acid
[2] = measured here: lipid fluorescence (Fed channel) AC50, cells fed with added oleic acid

SMILES | cell number change | AC50 [1] | AC50 [2]
COc1ccc(CC(C)NS(=O)(=O)c2ccc3c(c2)CCN3S(C)(=O)=O)cc1OC (stereo not drawn) | -3.04% | 1.84 µM [rising, partial curve, poor fit] | –
O=c1oc(-c2cccnc2)nc2ccccc12 | 6.23% | – | 0.0517 µM [falling, full curve, poor fit]
COc1cccc(-c2nc(CS(=O)(=O)CC(=O)NC3CCCc4ccccc43)c(C)o2)c1 (stereo not drawn) | 9.22% | – | 25.9 µM [rising, single point]
Cc1noc(C)c1S(=O)(=O)N(CC(=O)NCc1ccc(F)cc1)c1ccc(C(C)C)cc1 | -0.472% | – | 29.1 µM [falling, single point]
CCOC(=O)C1CCCN(c2nc3ccccc3nc2NS(=O)(=O)c2ccc(C)cc2)C1 (stereo not drawn) | 37.1% | 13 µM [rising, partial curve, poor fit] | 9.2 µM [rising, partial curve]
Cc1cc(C)nc(SCC(=O)OCC(=O)N(C)c2c(N)n(Cc3ccccc3)c(=O)[nH]c2=O)n1 | 9.41% | – | 29.1 µM [rising, single point]
N#CC1=C(N)C(C#N)(C#N)[C@H](c2ccncc2)[C@H]2CN(C(=O)OCc3ccccc3)CC=C12 | -24% | – | 8.2 µM [falling, partial curve]
CC(OC(=O)C1CCCC1)C(=O)Nc1ccc(S(N)(=O)=O)cc1 (stereo not drawn) | -18.9% | – | –
Cc1cc(Cl)cc(C)c1OCCCCN1CCOCC1 | -27.1% | – | 0.326 µM [falling, partial curve, poor fit]
Cc1ccc(S(=O)(=O)N(C)c2ccc(NS(C)(=O)=O)cc2)cc1 | -0.718% | – | 29.1 µM [falling, single point]
Cc1ccc(-c2nn(C(C)(C)C)c3ncnc(NS(=O)(=O)c4ccc([N+](=O)[O-])cc4)c23)cc1 | 6% | – | 0.116 µM [rising, full curve, poor fit]
COc1ccc(CC(=O)Nc2ccc(S(=O)(=O)N3CCOCC3)cc2)cc1 | -30.3% | 5.8 µM [falling, partial curve, poor fit] | 0.00517 µM [falling, full curve, poor fit]
CCCN(CCC)C(=O)c1ccc2c(=O)n(Cc3ccco3)c(=S)[nH]c2c1 | -7.57% | 0.0146 µM [rising, full curve] | 0.731 µM [rising, partial curve, poor fit]
CCc1ccc(/C=C2\SC(=S)N(CCCC(=O)Nc3ccc(C(=O)O)cc3)C2=O)cc1 | -20.1% | – | 29.1 µM [falling, single point]
CC(=O)N1CCCN(C(=O)c2ccc3nc(Cc4ccccc4F)oc3c2)CC1 | 26.1% | – | 29.1 µM [rising, single point]
CN(C)S(=O)(=O)N1CCN(C(=O)N(c2ccccc2)c2ccccc2)CC1 | – | – | 0.184 µM [rising, full curve, poor fit]
C=CCNC(=O)COc1cc(C)ccc1C | 1.72% | – | 0.082 µM [falling, full curve, poor fit]

SMILES | cell number change | AC50 [1] | AC50 [2]
CCc1ccccc1NC(=O)CSc1nnc(CCNC(=O)OC(C)(C)C)o1 | 16% | – | 29.1 µM [rising, single point]
COC(=O)c1ccc(C2NC(=S)N(c3ccccc3)C(C)=C2C(=O)Nc2ccccc2OC)cc1 (stereo not drawn) | – | 0.0259 µM [rising, full curve, poor fit] | 1.64 µM [rising, partial curve]
CC1C(=O)Nc2ccccc2N1C(=O)c1ccc(F)cc1F (stereo not drawn) | 6.31% | – | 20.6 µM [falling, single point]
COc1ccc(N(CC(=O)NCc2ccc3c(c2)OCO3)C(=O)c2csnn2)cc1 | – | – | 0.103 µM [falling, partial curve, poor fit]
O=c1cc(-c2ccccc2)[nH]c2cc(F)ccc12 | 17.7% | – | 18.4 µM [rising, single point]
COc1ccc(C(=O)COC(=O)c2cc(=O)[nH]c3ccccc23)c(OC)c1 | -48.6% | 13 µM [falling, partial curve] | 5.17 µM [falling, single point]
Cc1ccc(NS(=O)(=O)c2ccc3c(c2)oc(=O)n3C)cc1 | 21.1% | – | 29.1 µM [rising, single point]
Cc1cc(N/N=C2/CCCc3ccccc32)nc2ccccc12 | -62.3% | 32.6 µM [falling, single point] | 29.1 µM [falling, single point]
COc1cccc(NC(=O)COc2cc(C)cc3oc(=O)cc(C)c23)c1 | 39.1% | 29.1 µM [rising, single point] | –
CCc1ccc(NC(=O)N(Cc2cccnc2)Cc2ccco2)cc1 | -6.96% | 0.13 µM [rising, full curve, poor fit] | 0.13 µM [rising, full curve, poor fit]
Cc1ccc(Sc2ccc(NC(=O)CCl)cc2)c(C)c1 | -62.5% | 25.9 µM [falling, partial curve] | 32.6 µM [falling, single point]
Cc1ccccc1N(CC(=O)N/N=C/c1ccc(F)cc1)C(=O)c1ccccc1 | 27.3% | 0.82 µM [rising, full curve, poor fit] | 5.8 µM [rising, single point]
Cc1cccc(NC(=O)C2CC(O)CN2C(=O)Oc2ccccc2)c1 (stereo not drawn) | 50% | 29.1 µM [rising, partial curve, poor fit] | –
O=C(c1cc2cc(F)ccc2[nH]1)N1CCN(Cc2ccc3c(c2)OCO3)CC1 | – | – | 20.6 µM [falling, single point]
CN(C)c1ccc(/C=N/NC(=O)COc2ccccc2)cc1 | 61.8% | 23.1 µM [rising, single point] | –
CCN(CC)CCCn1c2c(c(SCC(=O)Nc3ccc(C)c(F)c3)nc1=O)CCC2 | 102% | 16.4 µM [rising, single point] | –
O=C(NNS(=O)(=O)c1ccccc1[N+](=O)[O-])c1cc2ccccc2cc1O | 19.7% | 1.3 µM [rising, full curve, poor fit] | 0.13 µM [rising, partial curve, poor fit]

An excerpt of these results, as tab-separated lines:
SMILES	cell number change	AC50 [1]	AC50 [2]
COc1cccc(NC(=O)COc2cc(C)cc3oc(=O)cc(C)c23)c1	39.1%	29.1 µM [rising, single point]	–
CCc1ccc(NC(=O)N(Cc2cccnc2)Cc2ccco2)cc1	-6.96%	0.13 µM [rising, full curve, poor fit]	0.13 µM [rising, full curve, poor fit]
Cc1ccc(Sc2ccc(NC(=O)CCl)cc2)c(C)c1	-62.5%	25.9 µM [falling, partial curve]	32.6 µM [falling, single point]

Reference: PubChem BioAssay AID2685 (National Center for Advancing Translational Sciences (NCATS), 2010)
